Several values for one entry are separate records, joined by “and”; a condition that tells them apart may be missing. Equal values may be shown once. The list shows a part of the results. Repeats in this data set agree poorly, so a single value says little.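 HEK293T cells were given each compound shortly before transfection with a reporter in which red mCherry is followed by the SARS-CoV-2 frameshift element and then GFP in the −1 frame, so GFP appears only after frameshifting.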

The assay concerns HEK293T. Briefly: percent viability (nuclei count) relative to control; higher = more viable cells. The following applies: 10 µM; 24 h.
Take `O=C(O)CCCc1ccccc1` [Sodium Phenylbutyrate]: the percent viability was 253%.
The same measure for `C=CCn1c(N)cc(=O)n(CC)c1=O` [Mictine]: 105%.
The same measure for `NC(=O)CC[C@@H]1NC(=O)[C@H](Cc2ccccc2)NC(=O)[C@H](Cc2ccc(O)cc2)NC(=O)[C@@H](N)CSSC[C@@H](C(=O)N2CCC[C@H]2C(=O)N[C@@H](CCCN=C(N)N)C(=O)NCC(N)=O)NC(=O)[C@H](CC(N)=O)NC1=O` [argipressin]: 207%; for `C[N+]1(C)CCC(=C(c2ccccc2)c2ccccc2)CC1` [diphemanil metilsulfate]: 201%; for `CC(C)n1c(/C=C/C(O)CC(O)CC(=O)O)c(-c2ccc(F)cc2)c2ccccc21` (stereo not drawn) [Fluvastatin]: 52.7%.
To `C=C1/C(=C\C=C2/CCC[C@]3(C)[C@@H]([C@H](C)/C=C/C=C/C(O)(CC)CC)CC[C@@H]23)C[C@@H](O)C[C@@H]1O` [seocalcitol] belongs 150%; to `C[C@H]1O[C@@H](O[C@H]2[C@@H](O)C[C@H](O[C@H]3[C@@H](O)C[C@H](O[C@H]4CC[C@@]5(C)[C@H](CC[C@@H]6[C@@H]5C[C@@H](O)[C@]5(C)[C@@H](C7=CC(=O)OC7)CC[C@]65O)C4)O[C@@H]3C)O[C@@H]2C)C[C@H](O)[C@@H]1O` [digoxin], 4.02%.
Turning to `[O-][S+](c1cc(Cl)cc(Cl)c1O)c1cc(Cl)cc(Cl)c1O` [bithionoloxide], the percent viability was 180%.
To `CO/N=C(\C(=O)N[C@@H]1C(=O)N2C(C(=O)[O-])=C(C[n+]3ccn4ncccc43)CS[C@H]12)c1nsc(N)n1` [cefozopran] belongs 220%.
For `CCc1cccc2c3c([nH]c12)C(CC)(CC(=O)O)OCC3` (stereo not drawn) [etodolac], the percent viability came to 157%.
With `CN1C(C(=O)Nc2ccccn2)=C(O)c2sc(Cl)cc2S1(=O)=O` [lornoxicam], the percent viability was found to be 169%.
Take `CC1(C)S[C@@H]2[C@H](/N=C/N3CCCCCC3)C(=O)N2[C@H]1C(=O)O` [mecillinam]: the percent viability was found to be 123%.
To `CO[C@H]1C[C@H](O[C@H]2[C@H](C)[C@@H](O[C@@H]3O[C@H](C)C[C@H](N(C)C)[C@H]3O)[C@@H](C)C[C@@]3(CO3)C(=O)[C@H](C)[C@@H](O)[C@@H](C)[C@@H](C)OC(=O)[C@@H]2C)O[C@@H](C)[C@@H]1O` belongs 98.9%; to `OC(c1cc(C(F)(F)F)nc2c(C(F)(F)F)cccc12)C1CCCCN1` (stereo not drawn) [mefloquine], 434%; to `COC(=O)Nc1nc2cc([S+]([O-])c3ccccc3)ccc2[nH]1` (stereo not drawn) [oxfendazole], 64.6%.
On to `C[C@H]1CN(C[C@H](Cc2ccccc2)C(=O)NCC(=O)O)CC[C@@]1(C)c1cccc(O)c1` [alvimopan], for which the percent viability was determined as 134%.
The same measure for `CC(=O)Oc1ccc(C(c2ccc(OC(C)=O)cc2)c2ccccn2)cc1` [bisacodyl]: 190% and 183%.
To `CN(C)CCCn1c(=O)c2ccccc2c2ccccc21` [fantridone] belongs 167%; to `CCCCOc1ccc(NC(=S)Nc2ccc(N(C)C)cc2)cc1` [N-(4-butoxyphenyl)-N'-[4-(dimethylamino)phenyl]thiourea], 123%.
The same measure for `CC(C)[C@H](NC(=O)[C@H](CC(=O)O)NC(=O)[C@H](CCCCN)NC(=O)[C@@H](N)CCCN=C(N)N)C(=O)N[C@@H](Cc1ccc(O)cc1)C(=O)O`: 243%.
As to `CO[C@H]1/C=C/O[C@@]2(C)Oc3c(C)c(O)c4c(O)c(c(/C=N/N5CCN(C)CC5)c(O)c4c3C2=O)NC(=O)/C(C)=C\C=C\[C@H](C)[C@H](O)[C@@H](C)[C@@H](O)[C@@H](C)[C@H](OC(C)=O)[C@@H]1C`, the percent viability came out at 140%.
For `C[C@@H]1C[C@H]2[C@@H]3CCC4=CC(=O)C=C[C@]4(C)[C@@]3(Cl)[C@@H](O)C[C@]2(C)[C@@]1(O)C(=O)CCl` [mometasone], the percent viability was determined as 334%.
For `CC[C@@H]1C(=O)OC[C@@H]1Cc1cncn1C`, the percent viability was determined as 101%.
To `CC(C)CCC[C@@H](C)[C@H]1CC[C@H]2[C@@H]3CC=C4C[C@@H](O)CC[C@]4(C)[C@H]3CC[C@]12C` belongs 138%; to `O=C1c2c(O)ccc(O)c2C(=O)c2c(NCCNCCO)ccc(NCCNCCO)c21` [mitoxantrone], 27.7% and 28.6%.
The same measure for `NC[C@H]1CC[C@H](C(=O)O)CC1` [tranexamic acid]: 105%.
The same measure for `CCOC(=O)Nc1ccc2c(c1)N(C(=O)CCN1CCOCC1)c1ccccc1S2` [moracizine]: 213%; for `CC1(c2ccccc2)CC(=O)N(CN2CCOCC2)C1=O` (stereo not drawn) [morsuximide]: 205%.
